Laboratory results: PMC4166321

T1: Hanks-type serine/threonine kinase YabT (Bacillus subtilis) (UniProt P37562)
T1 sequence: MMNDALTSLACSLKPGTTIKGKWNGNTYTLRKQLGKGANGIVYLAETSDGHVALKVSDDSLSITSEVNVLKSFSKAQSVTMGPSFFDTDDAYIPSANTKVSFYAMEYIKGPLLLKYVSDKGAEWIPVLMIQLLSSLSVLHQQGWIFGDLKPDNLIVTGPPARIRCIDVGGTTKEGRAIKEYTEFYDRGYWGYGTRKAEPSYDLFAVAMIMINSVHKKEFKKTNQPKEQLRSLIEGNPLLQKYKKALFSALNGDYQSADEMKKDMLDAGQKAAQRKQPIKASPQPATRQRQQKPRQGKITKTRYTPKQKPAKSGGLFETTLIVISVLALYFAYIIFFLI

T2: two-component-like kinase RsbT (Bacillus subtilis) (UniProt P42411)
T2 sequence: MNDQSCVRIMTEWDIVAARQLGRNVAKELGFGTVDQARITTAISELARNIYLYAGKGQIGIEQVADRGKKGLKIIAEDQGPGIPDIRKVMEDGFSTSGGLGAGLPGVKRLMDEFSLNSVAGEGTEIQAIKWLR


Assays:
Experiment in all cases: two-hybrid; yeast two-hybrid; bait as Gal4 BD fusion (pGBDU), prey as Gal4 AD fusion (pGAD); haploid cells of complementary mating types mixed in a 96 wells format; growth of diploids on selective media depleted for histidine
[1] = target: T1, Hanks-type serine/threonine kinase YabT (Bacillus subtilis)
[2] = target: T2, two-component-like kinase RsbT (Bacillus subtilis)
[3] = target: BY-kinase PtkB (EpsB) (Bacillus subtilis)

Molecule	binding [1]	binding [2]	binding [3]
phosphotyrosine-protein phosphatase PtpZ (Bacillus subtilis) (enzyme)	binds	binds	–
Hanks-type serine/threonine kinase YabT (enzyme, UniProt P37562 1-338) MMNDALTSLACSLKPGTTIKGKWNGNTYTLRKQLGKGANGIVYLAETSDGHVALKVSDDSLSITSEVNVLKSFSKAQSVTMGPSFFDTDDAYIPSANTKVSFYAMEYIKGPLLLKYVSDKGAEWIPVLMIQLLSSLSVLHQQGWIFGDLKPDNLIVTGPPARIRCIDVGGTTKEGRAIKEYTEFYDRGYWGYGTRKAEPSYDLFAVAMIMINSVHKKEFKKTNQPKEQLRSLIEGNPLLQKYKKALFSALNGDYQSADEMKKDMLDAGQKAAQRKQPIKASPQPATRQRQQKPRQGKITKTRYTPKQKPAKSGGLFETTLIVISVLALYFAYIIFFLI	–	–	binds

Now from value to molecule:

binding [1]	binding [2]	binding [3]	Molecule
binds	–	–	BY-kinase modulator TkmA (Bacillus subtilis)
–	binds	–	catalytically inactive PtkA (D81A) (Bacillus subtilis) (enzyme)

Results are given in words; binding and its absence hold for the method and conditions named. Binding can be weak; no strength is given.
